Data published in US20250388542A1, “ANALOGUES OF PENTAMIDINE AND USES THEREFOR” (Auransa Inc., priority 2018, published 2025).

Tested on: MCF7
Assay: CellTiter-Glo cytotoxicity, cancer cell line panel / breast cancer study
Format: cell-based
Details: MCF7, Invasive ductal carcinoma
Experimental: The objective of this study is to investigate potential cell killing effect of Compounds 1-15 on 3 cancer cell lines. 50% inhibition concentration (IC50) was determined for these compounds in various cancer cell lines using CellTiter-Glo™ luminescent cell viability assay at different compound concentrations. Each cell line (e.g., NCI-H209; NCI-H69; and SW1271) was treated with Compounds 1-15 and culture medium contains 0.2% [v/v] DMSO vehicle control. All the cells were cultured in the media supplemented with 10-20% fetal bovine serum at 37° C., 5% CO2 and 95% humidity.
The objective of this study is to investigate the effect of Compound 1 on cytotoxicity against 61 different types of cancer cell lines. IC50 were values were obtained using CellTiter-Glo™ as described above. […]
The objective of this study is to investigate the effect of Compound 1 on cell viability of various types of breast cancer. […] The raw data values from the CellTiter-Glo™ cell viability assay expressed in relative luminescence units were normalized to the vehicle for each individual plate, and any reduction in luminescence indicated a decrease in viability (%). The data was analyzed in GraphPad PRISM using a non-linear sigmoidal plot with variable slope (asymmetric four-point linear regression), and an IC50 value for each compound was generated. […]

`N.N.[Cl][Pt][Cl]` [Cisplatin, cisplatin, reference compound] gave an IC50 of 690 nM.
